Results are given in words; binding and its absence hold for the method and conditions named. Some binding calls cover weakened binding; strength is not graded here. One block for each binder: values may come before it.
Key:
[1] = molecular target: human uPAR expressed in HEK293T cells for Western blotting (FIG. 6, lane 5) (human) (UniProt Q03405); experiment: Western blot of HEK293T culture supernatants with His-tagged uPAR proteins, probed with the antibody
[2] = molecular target: cynomolgus monkey uPAR, cell-bound (cynomolgus monkey) (UniProt Q9GK78); experiment: FACS, GeoMean; cynomolgus uPAR expressed on 293T cells; antibody concentration not given
[3] = molecular target: human urokinase-type plasminogen activator receptor (uPAR, CD87), cell-bound (human) (UniProt Q03405); experiment: primary and secondary screening, FACS on cells expressing human uPAR, hybridoma supernatants
[4] = molecular target: cynomolgus monkey uPAR, cell-bound (cynomolgus monkey) (UniProt Q9GK78); experiment: FACS, CHOK1 cells expressing cyno uPAR, supernatant 1:2
[5] = molecular target: cynomolgus monkey uPAR, cell-bound (cynomolgus monkey) (UniProt Q9GK78); experiment: summary column Cyno X-reactivity

Chains of the proteins cited; added tags and fusions are not shown. Lines headed by an entry give the natural chain unless they say otherwise; changes in a name come on top. Residues count along the entry.
UniProt Q03405: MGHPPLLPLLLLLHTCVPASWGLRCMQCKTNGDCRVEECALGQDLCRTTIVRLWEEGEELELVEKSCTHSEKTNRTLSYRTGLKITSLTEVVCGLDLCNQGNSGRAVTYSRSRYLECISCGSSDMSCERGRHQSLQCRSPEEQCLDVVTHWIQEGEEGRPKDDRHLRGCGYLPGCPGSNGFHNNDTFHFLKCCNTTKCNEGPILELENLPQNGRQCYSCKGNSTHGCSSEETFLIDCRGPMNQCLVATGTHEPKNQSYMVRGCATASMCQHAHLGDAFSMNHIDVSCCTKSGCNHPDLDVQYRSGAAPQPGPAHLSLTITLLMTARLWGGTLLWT
human urokinase-type plasminogen activator receptor (uPAR, CD87), cell-bound: residues 23-305 of Q03405
human uPAR expressed in HEK293T cells for Western blotting (FIG. 6, lane 5): residues 23-303 of Q03405
UniProt Q9GK78, residues 23-305: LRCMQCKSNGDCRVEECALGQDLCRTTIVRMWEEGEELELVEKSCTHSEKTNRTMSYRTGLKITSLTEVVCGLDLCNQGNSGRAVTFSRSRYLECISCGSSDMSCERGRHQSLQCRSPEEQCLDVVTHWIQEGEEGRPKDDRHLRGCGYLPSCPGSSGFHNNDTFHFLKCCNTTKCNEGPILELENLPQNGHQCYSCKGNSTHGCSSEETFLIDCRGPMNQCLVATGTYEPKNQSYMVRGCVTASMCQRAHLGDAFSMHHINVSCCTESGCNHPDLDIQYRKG

- binding [1]: binds
B1: fully human monoclonal antibody 4.18.1 (ATCC Accession Number PTA-7476) (antibody, V domains shown)
VH: EVQLVESGGGLIQPGGSLRLSCAASGFTVRNNYMNWVRQAPGKGLEWVSVIYTGGSTYYADSVKGRFTISRDNSRNTLYLQMNSLRAEDTAVYYCAREGAVAGFDYWGQGTLVTVSL
VL: EIVMTQFPATLSMSPGERATLSCRASQSVSSSLAWYQQTPGQAPRLLIYGASTRSTGFPARFSGIGSGTEFTLTISSLQSEDFAVYYCQQYGNWPLTFGQGTRLEIK

- binding [1]: binds
B2: fully human monoclonal antibody 2.6.1 (ATCC Accession Number PTA-7475) (antibody, V domains shown)
VH: EVQLVESGGGLIQPGGSLRLSCAASGFTVITNYMNWVRQAPGKGLEWVSIIYTGGSTSYADSVKGRFTVSRDNSKNTLYLHMNSLRVEDTAVYYCAREIAVAGYYGMDVWGQGTTVTVS
VL: DIQMTQSPSSLSASVGDRVTITCRASQGIRNDLGWYQQKPGKAPKRLIYAASSLQSGVPSRFSGSGSGTEFTLTISSLQPEDFATYYCLQHNSYPLTFGGGTRVEIK

- binding [2]: binds
- binding [3]: binds
- binding [4]: binds
- binding [5]: binds
B3: anti-uPAR monoclonal antibody 3.8.3 (antibody, V domains shown)
VH: EVQLVESGGGLVQPGGSLRLSCAASGFTFSSYWMSWVRQAPGKGLEWVANIKQHGSEKYYVDSVKGRFTISRDNAKNSLYLQMNSLRAEDTAVYYCAREEAYYYDNSGYYWYFDLWARGTLVTVSS
VL: DIQMTQSPSSVSASIGDRVTITCRASQGISSWLAWYQQKPGKTPKLLIYAASSLQSGVPSRFSGSGSGTDFTLTISSLQPEDFATYYCQQADSFPWTFGQGTKVEIK

From patent publication US20080152587A1
